Measurements: patent US20080175801A1, “Stable peroxide containing personal care compositions” (The Procter & Gamble Company, priority 2007, published 2008)

Test: Chemiluminescence assay (luminol or L-012) of Relative Radical Forming Potential of metals with peroxide
Conditions: for Relative Radical Forming Potential (RRFP): % increase of chemiluminescence signal vs. control, sum over 10 ug/ml to 0.0001 ug/ml of metal; for RRFPI (RRFP index relative to Co = 100): assigned 100

[Pt] [Pt, Platinum]
Relative Radical Forming Potential (RRFP): 6.99% | RRFPI (RRFP index relative to Co = 100): 1.38

[Co] [Co, Cobalt]
Relative Radical Forming Potential (RRFP): 503.87% | RRFPI (RRFP index relative to Co = 100): 100

[Ni] [Ni, Nickel]
Relative Radical Forming Potential (RRFP): 188.64% | RRFPI (RRFP index relative to Co = 100): 37.43

[Mn+2] [Mn, Manganese]
Relative Radical Forming Potential (RRFP): 13.95% | RRFPI (RRFP index relative to Co = 100): 2.76

[Mo] [Mo, Molybdnenum]
Relative Radical Forming Potential (RRFP): 7.52% | RRFPI (RRFP index relative to Co = 100): 1.49

[Cr] [Cr, Chromium]
Relative Radical Forming Potential (RRFP): 8.92% | RRFPI (RRFP index relative to Co = 100): 1.77

[Pd] [Pd, Palladium]
Relative Radical Forming Potential (RRFP): 231.58% | RRFPI (RRFP index relative to Co = 100): 45.96

[Cu] [Cu, Copper]
Relative Radical Forming Potential (RRFP): 340.13% | RRFPI (RRFP index relative to Co = 100): 67.5
